The exact form of at least one protein or probe is not confirmed. Results from cells or extracts need not show a direct contact. A negative result means that nothing was seen under these conditions.

The chains behind the UniProt entries cited, without tags or fusion partners. Residues count along the entry.
UniProt P28908, 19-595: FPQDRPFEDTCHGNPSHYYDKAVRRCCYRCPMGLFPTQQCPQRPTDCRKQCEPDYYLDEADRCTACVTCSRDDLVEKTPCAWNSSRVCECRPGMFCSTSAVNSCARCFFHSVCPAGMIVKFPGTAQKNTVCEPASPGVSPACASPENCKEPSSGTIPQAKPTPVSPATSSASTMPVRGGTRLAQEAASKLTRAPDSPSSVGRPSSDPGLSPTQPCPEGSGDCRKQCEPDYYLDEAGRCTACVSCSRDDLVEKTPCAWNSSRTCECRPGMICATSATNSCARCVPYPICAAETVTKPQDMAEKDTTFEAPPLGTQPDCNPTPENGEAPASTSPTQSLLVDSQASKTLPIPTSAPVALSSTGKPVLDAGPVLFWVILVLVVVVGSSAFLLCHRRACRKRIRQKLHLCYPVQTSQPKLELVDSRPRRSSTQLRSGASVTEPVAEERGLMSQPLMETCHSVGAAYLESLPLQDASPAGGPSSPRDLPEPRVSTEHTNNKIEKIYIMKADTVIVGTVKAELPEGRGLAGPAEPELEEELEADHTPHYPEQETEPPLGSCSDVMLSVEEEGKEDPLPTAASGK

The target of the data set is CD30 (cell-surface, Karpas 299 cells) (human) (UniProt P28908). The data set can be described thus: flow cytometry. As to conditions: 50 nM dsDNA alone, 20 min, Cell binding in 100 µL PBS, 50 nM oligonucleotide, 2x10^5 cells, PBS wash, pH and temperature not stated, protein on the cell surface, label: Cy5.

Consider “CGCGCGCGCGCGCGCGCGCG (double strand) [CG-repeat dsDNA (Dox carrier)]”, for which the binding result is on record as “no binding”.

Source of the values: article PMC7226387.
